# Test results from the supplement of paper PMC6411743.
# By UniProt entry, the sequences of proteins in these tests, tags left out. Where a name states a change or a piece, a line headed by the entry shows the natural chain unless it says otherwise.
# UniProt O43464: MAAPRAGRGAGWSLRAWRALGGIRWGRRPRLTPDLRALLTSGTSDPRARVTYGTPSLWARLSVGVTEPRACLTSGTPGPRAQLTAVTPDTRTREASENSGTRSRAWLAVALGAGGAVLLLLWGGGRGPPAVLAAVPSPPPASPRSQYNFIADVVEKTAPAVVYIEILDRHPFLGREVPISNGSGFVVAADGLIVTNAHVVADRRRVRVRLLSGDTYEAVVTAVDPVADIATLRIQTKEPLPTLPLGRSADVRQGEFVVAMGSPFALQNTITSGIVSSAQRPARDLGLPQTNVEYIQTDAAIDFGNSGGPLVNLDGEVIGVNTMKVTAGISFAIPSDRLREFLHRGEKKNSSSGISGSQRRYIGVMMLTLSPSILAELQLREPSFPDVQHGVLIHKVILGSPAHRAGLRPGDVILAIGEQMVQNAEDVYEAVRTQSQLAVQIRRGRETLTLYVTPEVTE
# UniProt O14526: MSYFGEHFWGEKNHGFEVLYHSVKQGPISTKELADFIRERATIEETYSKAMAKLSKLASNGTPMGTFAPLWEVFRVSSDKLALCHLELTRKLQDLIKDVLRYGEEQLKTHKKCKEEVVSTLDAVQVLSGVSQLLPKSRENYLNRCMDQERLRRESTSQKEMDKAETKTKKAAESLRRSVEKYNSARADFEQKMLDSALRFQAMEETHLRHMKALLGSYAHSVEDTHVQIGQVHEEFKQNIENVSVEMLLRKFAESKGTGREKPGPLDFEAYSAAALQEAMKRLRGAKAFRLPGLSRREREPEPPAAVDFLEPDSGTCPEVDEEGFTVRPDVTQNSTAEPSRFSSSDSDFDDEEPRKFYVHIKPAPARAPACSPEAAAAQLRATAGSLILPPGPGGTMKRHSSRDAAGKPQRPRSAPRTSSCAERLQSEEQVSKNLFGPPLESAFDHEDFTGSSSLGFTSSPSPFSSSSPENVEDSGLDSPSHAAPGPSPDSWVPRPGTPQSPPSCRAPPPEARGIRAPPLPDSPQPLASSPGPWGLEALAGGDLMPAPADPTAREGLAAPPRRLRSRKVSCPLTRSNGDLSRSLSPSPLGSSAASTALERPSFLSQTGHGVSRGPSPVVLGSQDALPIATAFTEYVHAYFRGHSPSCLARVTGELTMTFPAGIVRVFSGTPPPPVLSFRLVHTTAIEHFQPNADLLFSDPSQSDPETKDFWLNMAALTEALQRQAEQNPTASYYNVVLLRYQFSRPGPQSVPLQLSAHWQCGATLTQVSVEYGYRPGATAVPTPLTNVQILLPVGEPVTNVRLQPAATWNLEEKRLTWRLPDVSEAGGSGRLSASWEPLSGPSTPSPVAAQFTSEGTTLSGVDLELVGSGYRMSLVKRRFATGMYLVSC
# UniProt O00571: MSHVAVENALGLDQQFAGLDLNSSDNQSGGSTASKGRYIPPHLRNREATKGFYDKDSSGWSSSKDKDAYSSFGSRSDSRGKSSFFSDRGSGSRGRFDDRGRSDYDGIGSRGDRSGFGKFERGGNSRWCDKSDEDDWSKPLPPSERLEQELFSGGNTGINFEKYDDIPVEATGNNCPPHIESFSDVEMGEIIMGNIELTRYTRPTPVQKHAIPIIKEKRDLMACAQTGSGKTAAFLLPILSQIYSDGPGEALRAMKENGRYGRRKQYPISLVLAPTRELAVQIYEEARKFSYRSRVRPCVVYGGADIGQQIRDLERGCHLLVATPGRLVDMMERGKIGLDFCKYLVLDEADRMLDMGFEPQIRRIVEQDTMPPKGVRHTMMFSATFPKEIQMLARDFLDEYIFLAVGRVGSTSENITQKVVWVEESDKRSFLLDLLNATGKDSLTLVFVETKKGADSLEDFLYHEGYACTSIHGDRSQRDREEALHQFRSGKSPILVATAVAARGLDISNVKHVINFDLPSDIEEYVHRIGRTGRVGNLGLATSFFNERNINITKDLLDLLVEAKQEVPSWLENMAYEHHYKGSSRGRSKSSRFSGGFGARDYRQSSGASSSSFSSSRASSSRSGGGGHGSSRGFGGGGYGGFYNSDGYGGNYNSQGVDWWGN
# UniProt Q9BWM7: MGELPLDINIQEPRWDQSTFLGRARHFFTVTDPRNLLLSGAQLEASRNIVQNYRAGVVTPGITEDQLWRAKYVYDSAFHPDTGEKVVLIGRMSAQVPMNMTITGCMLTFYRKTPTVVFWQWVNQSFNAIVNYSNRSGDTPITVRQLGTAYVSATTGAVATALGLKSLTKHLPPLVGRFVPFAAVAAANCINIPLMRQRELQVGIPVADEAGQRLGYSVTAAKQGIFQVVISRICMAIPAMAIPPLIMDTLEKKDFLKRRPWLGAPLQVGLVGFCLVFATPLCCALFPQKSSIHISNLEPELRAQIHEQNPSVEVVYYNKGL
# UniProt P01848, whole entry, looked up: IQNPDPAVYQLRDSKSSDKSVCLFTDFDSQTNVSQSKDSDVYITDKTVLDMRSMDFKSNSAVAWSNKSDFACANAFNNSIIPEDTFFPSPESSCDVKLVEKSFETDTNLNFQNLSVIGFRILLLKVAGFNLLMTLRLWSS
# UniProt Q96CW1: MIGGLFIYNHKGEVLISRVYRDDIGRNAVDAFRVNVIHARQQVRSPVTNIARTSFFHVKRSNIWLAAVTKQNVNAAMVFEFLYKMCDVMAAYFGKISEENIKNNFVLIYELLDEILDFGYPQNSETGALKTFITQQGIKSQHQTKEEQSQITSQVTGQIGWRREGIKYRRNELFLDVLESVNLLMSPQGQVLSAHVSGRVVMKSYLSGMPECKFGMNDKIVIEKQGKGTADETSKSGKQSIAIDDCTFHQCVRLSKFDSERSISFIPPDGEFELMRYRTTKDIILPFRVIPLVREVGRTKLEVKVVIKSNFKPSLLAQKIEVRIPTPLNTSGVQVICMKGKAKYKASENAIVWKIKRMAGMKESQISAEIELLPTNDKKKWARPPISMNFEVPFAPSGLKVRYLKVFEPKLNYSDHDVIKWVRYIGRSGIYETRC
# UniProt Q5VT25: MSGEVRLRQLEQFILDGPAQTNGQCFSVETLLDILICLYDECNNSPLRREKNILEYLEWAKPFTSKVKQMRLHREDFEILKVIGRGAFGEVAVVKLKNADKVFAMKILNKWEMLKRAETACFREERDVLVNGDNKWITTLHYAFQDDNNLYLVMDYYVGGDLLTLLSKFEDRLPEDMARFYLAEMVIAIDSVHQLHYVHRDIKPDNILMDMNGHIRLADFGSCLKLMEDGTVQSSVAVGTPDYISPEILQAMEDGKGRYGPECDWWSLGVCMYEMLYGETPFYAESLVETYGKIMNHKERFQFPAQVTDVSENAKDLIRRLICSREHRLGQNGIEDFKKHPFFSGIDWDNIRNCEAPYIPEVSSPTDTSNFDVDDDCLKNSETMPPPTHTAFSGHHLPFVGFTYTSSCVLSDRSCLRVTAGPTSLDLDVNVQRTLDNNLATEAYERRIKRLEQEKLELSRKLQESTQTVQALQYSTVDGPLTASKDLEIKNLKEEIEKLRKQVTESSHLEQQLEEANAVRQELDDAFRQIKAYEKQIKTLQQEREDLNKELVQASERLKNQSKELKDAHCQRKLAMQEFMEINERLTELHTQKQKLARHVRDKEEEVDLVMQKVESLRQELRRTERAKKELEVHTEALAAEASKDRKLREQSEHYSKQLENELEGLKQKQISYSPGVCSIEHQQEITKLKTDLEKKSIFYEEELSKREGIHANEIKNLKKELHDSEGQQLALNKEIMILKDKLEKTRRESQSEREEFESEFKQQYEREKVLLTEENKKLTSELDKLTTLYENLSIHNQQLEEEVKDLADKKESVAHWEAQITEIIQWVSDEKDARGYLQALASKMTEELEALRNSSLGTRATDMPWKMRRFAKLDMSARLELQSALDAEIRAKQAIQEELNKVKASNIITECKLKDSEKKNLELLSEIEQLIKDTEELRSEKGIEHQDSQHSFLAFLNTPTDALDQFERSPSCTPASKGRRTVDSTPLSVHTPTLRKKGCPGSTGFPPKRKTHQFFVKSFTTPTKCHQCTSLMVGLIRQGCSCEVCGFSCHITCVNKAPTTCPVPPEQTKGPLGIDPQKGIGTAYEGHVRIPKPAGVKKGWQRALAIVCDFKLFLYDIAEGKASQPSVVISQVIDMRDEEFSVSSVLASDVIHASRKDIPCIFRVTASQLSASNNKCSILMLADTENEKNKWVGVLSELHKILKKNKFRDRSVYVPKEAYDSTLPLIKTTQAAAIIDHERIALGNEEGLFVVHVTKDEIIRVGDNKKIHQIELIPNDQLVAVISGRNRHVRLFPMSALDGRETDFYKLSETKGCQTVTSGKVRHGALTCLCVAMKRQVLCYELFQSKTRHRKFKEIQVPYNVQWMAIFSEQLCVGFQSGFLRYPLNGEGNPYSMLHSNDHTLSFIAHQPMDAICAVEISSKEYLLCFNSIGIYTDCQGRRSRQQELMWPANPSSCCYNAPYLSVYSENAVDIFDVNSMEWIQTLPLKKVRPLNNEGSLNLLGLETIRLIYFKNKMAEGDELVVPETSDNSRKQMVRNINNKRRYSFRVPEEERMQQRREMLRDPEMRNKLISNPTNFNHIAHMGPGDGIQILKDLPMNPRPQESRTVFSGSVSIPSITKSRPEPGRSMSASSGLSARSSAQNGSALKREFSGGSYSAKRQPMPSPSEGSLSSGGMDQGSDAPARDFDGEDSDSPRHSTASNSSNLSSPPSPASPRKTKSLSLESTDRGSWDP
# UniProt Q9Y365: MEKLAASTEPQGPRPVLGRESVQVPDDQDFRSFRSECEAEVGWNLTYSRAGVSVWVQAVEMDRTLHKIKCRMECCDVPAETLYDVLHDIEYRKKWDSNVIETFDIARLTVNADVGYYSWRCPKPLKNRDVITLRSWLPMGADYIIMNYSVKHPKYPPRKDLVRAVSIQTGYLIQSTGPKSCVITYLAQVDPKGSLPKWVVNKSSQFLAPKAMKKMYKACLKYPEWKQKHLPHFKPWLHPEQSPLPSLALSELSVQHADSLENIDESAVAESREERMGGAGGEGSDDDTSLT
# UniProt V9HW75, whole entry, looked up: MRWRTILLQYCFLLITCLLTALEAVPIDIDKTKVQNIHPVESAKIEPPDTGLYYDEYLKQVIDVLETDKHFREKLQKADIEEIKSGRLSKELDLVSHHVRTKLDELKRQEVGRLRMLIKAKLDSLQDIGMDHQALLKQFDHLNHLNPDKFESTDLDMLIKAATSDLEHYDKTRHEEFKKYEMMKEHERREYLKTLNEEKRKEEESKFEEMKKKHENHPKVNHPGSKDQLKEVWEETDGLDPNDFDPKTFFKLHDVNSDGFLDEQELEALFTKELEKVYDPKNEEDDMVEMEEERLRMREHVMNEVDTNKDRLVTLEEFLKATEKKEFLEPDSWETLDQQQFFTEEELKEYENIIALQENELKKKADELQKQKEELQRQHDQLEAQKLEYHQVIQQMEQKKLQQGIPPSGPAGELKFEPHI
# UniProt Q7L014: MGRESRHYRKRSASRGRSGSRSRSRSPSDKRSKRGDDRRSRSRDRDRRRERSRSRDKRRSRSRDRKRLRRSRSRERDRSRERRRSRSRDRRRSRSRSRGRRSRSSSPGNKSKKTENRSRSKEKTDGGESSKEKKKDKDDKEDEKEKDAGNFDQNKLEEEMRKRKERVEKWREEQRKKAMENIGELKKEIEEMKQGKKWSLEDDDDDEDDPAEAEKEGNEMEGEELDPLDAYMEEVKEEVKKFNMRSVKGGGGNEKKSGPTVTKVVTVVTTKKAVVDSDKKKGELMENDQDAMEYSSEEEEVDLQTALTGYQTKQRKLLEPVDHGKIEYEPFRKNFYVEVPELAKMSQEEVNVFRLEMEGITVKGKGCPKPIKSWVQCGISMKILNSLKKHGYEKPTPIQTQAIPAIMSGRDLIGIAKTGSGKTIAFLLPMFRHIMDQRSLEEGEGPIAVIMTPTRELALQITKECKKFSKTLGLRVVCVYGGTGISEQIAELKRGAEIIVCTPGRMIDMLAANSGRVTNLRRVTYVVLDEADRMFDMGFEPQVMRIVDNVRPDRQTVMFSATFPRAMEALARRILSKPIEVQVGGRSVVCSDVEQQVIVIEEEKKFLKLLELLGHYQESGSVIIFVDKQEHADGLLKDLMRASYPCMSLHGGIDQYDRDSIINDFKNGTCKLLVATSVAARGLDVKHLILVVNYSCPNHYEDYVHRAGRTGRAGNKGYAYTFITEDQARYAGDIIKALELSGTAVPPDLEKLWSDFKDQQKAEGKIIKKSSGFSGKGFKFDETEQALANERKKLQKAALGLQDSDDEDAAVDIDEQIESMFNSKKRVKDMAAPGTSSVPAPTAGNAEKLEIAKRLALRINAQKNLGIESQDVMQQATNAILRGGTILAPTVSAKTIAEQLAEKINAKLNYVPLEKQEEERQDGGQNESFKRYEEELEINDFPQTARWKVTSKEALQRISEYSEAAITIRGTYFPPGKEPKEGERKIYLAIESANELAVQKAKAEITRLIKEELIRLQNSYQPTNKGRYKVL
# ± gives the standard deviation of the averaged measurements. The list shows a part of the results, in another mix than the full data. Most entries show no effect beyond the scatter of the controls.
# Compound: Nc1ncnc2c1ncn2[C@@H]1O[C@H](COP(=O)(O)OP(=O)(O)OP(=O)(O)O)[C@@H](O)[C@H]1O [adenosine triphosphate]
# Experiment: NP40-soluble protein abundance relative to vehicle (solubility fold change) (ratio); higher = more soluble protein in presence of ATP
# In short: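 Each value is a fold change relative to the detergent-processed vehicle, calculated per replicate from vsn-normalised intensities. Jurkat crude lysate received eight concentrations (0.1 to 10 mM) for 10 min at room temperature and 3 min at 37 °C, then was solubilised in 0.8% NP40 with benzonase (60 min, 4 °C). The ultracentrifuged supernatant was TMT-labelled and run by LC-MS/MS in three independent experiments.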
Target,NP40-soluble protein abundance (concentration: 0.1mM),NP40-soluble protein abundance (concentration: 0.5mM)
A0A0D9SF54|A0A0D9SGF6|Q13813 and related entries (UniProt Q13813),0.853 ± 0.035,0.853 ± 0.065
A0A0C4DG44|O43464 and related entries (UniProt O43464),1.02 ± 0.063,0.992 ± 0.034
A0A0C3SFZ9|O14526 and related entries (UniProt O14526),1.02 ± 0.011,1.03 ± 0.069
A0A0D9SF53|A0A0D9SFB3|A0A0D9SG12|O00571 (UniProt O00571),1.07 ± 0.039,1.11 ± 0.05
A0A0A0MS41|Q9BWM7 (UniProt Q9BWM7),0.947 ± 0.041,0.965 ± 0.029
A0A087WWC6|P01848 and related entries (UniProt Q6P4I7+P01848),0.91 ± 0.051,0.968 ± 0.041
A0A087WY71|Q96CW1 and related entries (UniProt Q96CW1),1.07 ± 0.054,1.08 ± 0.012
A0A0A0MRJ0|Q5VT25 and related entries (UniProt Q5VT25),1.08 ± 0.029,1.24 ± 0.14
A0A087WU62|A0A087X2D5|A0A0G2JMS5|Q9BRJ2 (UniProt Q9BRJ2),1.02 ± 0.084,1.04 ± 0.11
A0A087WXR2|F5H1Z6 and related entries (UniProt Q9Y365),1.06 ± 0.086,1.03 ± 0.055
A0A087WSV8|V9HW75 (UniProt V9HW75),0.993 ± 0.072,0.915 ± 0.13
A0A087WYL7|G3V4A5 and related entries (UniProt O75586),0.956 ± 0.026,0.995 ± 0.03
A0A0C4DG89|Q7L014 (UniProt Q7L014),1.04 ± 0.024,1.13 ± 0.052
A0A0C4DGT6|Q96AP0 and related entries (UniProt Q96AP0),1.02 ± 0.13,1.06 ± 0.093

# Looked up above.
# Value of A0A0C4DG44|O43464 and related entries (UniProt O43464) under NP40-soluble protein abundance (concentration: 0.5mM): 0.992 ± 0.034
# Value of A0A0C3SFZ9|O14526 and related entries (UniProt O14526) under NP40-soluble protein abundance (concentration: 0.5mM): 1.03 ± 0.069
